Assay results taken from the supplement of paper PMC4683952.
Some of the results follow. Cut-off read from the data, not from the text of the source: active = 2 or more and inactive = the rest. Repeats in this data set agree poorly, so a single value says little.

system: Lgr5 (MarsCy1-Lgr5-EGFP, U2OS); assay: cell-surface Lgr5 expression (SCi1 fluorescence, background-subtracted) relative to WT DMSO (fold of DMSO control); higher = more Lgr5 at the plasma membrane; settings: U2OS MarsCy1-Lgr5-EGFP stable; treatment time: overnight; library: ActiProbe-5K (TimTec); 25 µM

cell-surface Lgr5 expression, inactive:
C(/S(=O)(=O)CCCC)(S(=O)(=O)CCCC)=C1\NCCN1 0.878
NC(=O)C(C(N)=O)C1CCS(=O)(=O)C1 (stereo unspecified) 1.09
Nc1ccc(/N=N\c2ccccc2)c(N)n1 1.02
S(CC12[C@@]([C@@H](CC2)CC1O)(C)C)(N(C1CCCCC1)C1CCCCC1)(=O)=O (stereo partly specified) 0.82
Cn1c(SCc2nc3ccccc3[nH]2)nc2ccccc21 1.12
O=C1Nc2ccc(Cl)cc2/C1=C\c1ccc2c(c1)OCO2 1.41
O=C(O)C1Cc2nc[nH]c2C=N1 (stereo unspecified) 1.22
NC(=S)N/N=C/c1cccnc1 1.19
O=C(O)CC12CC3CC(C1)CC(CC(=O)O)(C3)C2 1.27
O=C1NCCN1C(=O)Nc1nccs1 0.758
O=C(c1ccco1)c1coc2ccc(O)cc12 0.921
C=1(C(C(C(C)(C)C)=CC(/C1)=C/c1cc(c([O])c(c1)C(C)(C)C)C(C)(C)C)=O)C(C)(C)C 1.18
O=S(=O)(c1ccccc1)N1CCN(C2CCCC2)CC1 1.09
N#CCC(=O)C12CC3CC(CC(C3)C1)C2 1.23
Cc1ccsc1/C=N\n1c(S)nnc1C1CCCCC1 0.962
CC(=O)c1c(C)nc(-c2cccs2)n1O 1.14
CCCC(C)Sc1nc2nc(C)cc(C)n2n1 (stereo unspecified) 1.25
COc1cc(F)c(Br)cc1F 0.937
SC1=NN(c2ccccc2)C2=C(CCC2)S1 0.925
N#Cc1cc(F)ccc1C(F)(F)F 1.04
O=C1COc2ccc(S(=O)(=O)NCC3CC4CCC3C4)cc2N1 (stereo unspecified) 0.96
O=C(c1cc([N+](=O)[O-])n[nH]1)N1CCSCC1 0.986
COc1cc2c(c(OC)c1OC)COC2=O 1.58
O=[N+]([O-])c1ccc2oc3c(c2c1)CCCC3 1.06
O=C(O)CCN1C(=O)NC2NC(=O)NC21 (stereo unspecified) 1.04
CCC(=O)Nc1nonc1-c1noc(CC)n1 1.22
Cc1[nH]nc(O)c1C1(C(C#N)C#N)C2CC3CC(C2)CC1C3 (stereo unspecified) 1.29
Nc1nc(CSc2ncccn2)nc(Nc2ccccc2)n1 1.09
N#CCC(N\N=C1\CCCCC1)=O 1.07
Nc1c(F)c(F)nc(F)c1F 1.23
C=CCN1CNC(CCSC)C1=O (stereo unspecified) 0.779
C#CC(C)(C)OC(=O)C1CC(C)=CCC1C(=O)O (stereo unspecified) 1.15
C(=C/c1ccccc1)/C=N/N1CCN(c2ccccn2)CC1 0.935
O=S(=O)(c1ccccc1)n1ccc2ccccc21 1.3
CCCN(CCC)C(=O)N1CCNC1=O 1.41
O=C(Nc1nc2c(s1)CCCCC2)C1CCCC1 0.786
CC(=O)CSCc1ccco1 0.875
CNC(=O)C1CC(=O)N(C)C1 (stereo unspecified) 1.23
Cc1ccc(-c2nnc3c(n2)c(=O)n(C)c(=O)n3C)o1 1.3
Cc1cc(-c2cc(O)[nH]n2)c(C)s1 0.682
OC(COC1CCCCC1)CN1CCN(CC(O)COC2CCCCC2)CC1 (stereo unspecified) 1.19
O=Cc1ccc(Cn2cc([N+](=O)[O-])cn2)o1 1.61
CCC1(CC)OC(c2ccccn2)Nc2ccccc21 (stereo unspecified) 1.16
NCCNC(=O)c1nonc1N 1.31
O=C(c1ccc(Br)o1)N1CCOCC1 1.45
O=C1NC(=O)/C(=C\c2ccc(Cl)s2)S1 0.864
C/C(=N\NC(=O)c1cccs1)C(C)(C)C 1.05
C=CCC(=O)n1c(=O)sc2ccccc21 1.08
CN(C)CCn1cnc2cc([N+](=O)[O-])ccc21 1.19
CC(C)(C)c1cc(Sc2c(F)c(F)nc(N3CCCC3)c2F)cc(C(C)(C)C)c1O 1.11
O=C(CC1CCS(=O)(=O)C1)NC1CCCCC1 (stereo unspecified) 1.11
CN=C1/C(=C/c2ccc(C(C)(C)C)cc2)COC/C1=C\c1ccc(C(C)(C)C)cc1 1.17
COc1ccc(-c2noc(-c3ccc(OC)cc3)[n+]2[O-])cc1 1.42
COc1ccc(OC)c(S(=O)(=O)N2CCOCC2)c1 1.13
CCc1n[nH]c2c1C1(CCC3(CC1)OCCO3)C(C#N)=C(N)O2 1.12
CS(=O)(=O)c1c(Cl)cc(Cl)cc1Cl 1.25
CN1CCN(c2nc3ccccc3nc2N2CCN(C)CC2)CC1 1.34
CN(CCOc1ccccc1)S(=O)(=O)c1ccc2c(c1)oc1ccccc12 1.07
O=c1[nH]n2cc(-c3n[nH]cc3[N+](=O)[O-])cnc2c1[N+](=O)[O-] 1.19
O=S(=O)(NCCn1cccc1)c1ccc2ccccc2c1 1.18
N=C1NC(c2ccccc2)=CC(c2ccccc2)S1 (stereo unspecified) 1.01
Oc1ccc(/N=N\c2ccc(O)cc2)cc1 0.664
COc1cccc(-c2nnc3n2N=C(c2cc(OC)ccc2OC)CS3)c1 1.19
Cc1c(C)c(/C=N\O)c(C)c(C)c1/C=N\O 1.09
C=CCn1cnc2ccc(Br)cc2c1=O 1.19
OC1=C2C(=Nc3ccccc3SC2c2ccc(Br)cc2)c2ccccc21 (stereo unspecified) 0.921
Cc1ccc(/C=N/NC(=O)c2ccco2)o1 1.21
Nc1ccc(S(=O)(=O)Nc2ncccn2)cc1 1.41
O=C(O)C1CCCN1S(=O)(=O)c1ccc(Cl)s1 (stereo unspecified) 1.29
O=S(=O)(Nc1ccc(Br)cc1F)c1ccc(F)cc1 1.07
Br.NC1=Nc2cccc3cccc(c23)N1.O 0.737

Quoted at random: two entries already listed, in no set order.
cell-surface Lgr5 expression, inactive:
O=C(Nc1nc2c(s1)CCCCC2)C1CCCC1 0.786
O=C(CC1CCS(=O)(=O)C1)NC1CCCCC1 (stereo unspecified) 1.11
